# Reference: the supplement of paper PMC6445147
# This is a noisy data set.
# B1: human tRNA-Pro; a variant is named by its letters at N, in order (parent)
# chain: GGCTCGTTGGTCTAGNGGTATGATTCTCGCTTAGGGTGCGAGAGGTCCCGGGTTCNNATCCCGGACGAGCCC
# Variants of: B1
# Experiment: tRNA 5' processing efficiency (processed reads / all reads, maximum-likelihood estimate) (fraction); higher = more efficient 5' processing
# Details: HEK293T; construct: CMV Pol-II promoter ((+)CMV library, decapped)
row,Variant,tRNA 5' processing efficiency
1,TAA A20G T53C C55G A58C,0.4
2,GGA A14C T19A C55A A58G T59C,0.25
3,GAA T8G T54G C55G A58G T59C,0.2
4,CAA T8A G9C G15C,0.2
5,GTG G17A T19G,0.25
6,GAA T8G A14T T19C C55A T59C,0.33
7,TAA G9A T19A A20T,0.33
8,GGA A14T G18T T54G,0.17
9,CAG A20T C55T,0.2
10,TAA T8A G9T G17A G18T T19G T53A,0.25
11,GGA T8C G15T,0.4
12,GTA T54A C55G,0.2
13,GGA A14C G15A T54A,0.11
14,GAA T8G T19C A20G T59C,0.4
15,AAA T53A T54G,0.4
16,GGA T8G G18T A58C,0.22
17,CAA G18T T19C C55A A58G,0.2
18,TCA G17A G18A C55T,0.13
19,GAC G18T A20G C55T,0.2
20,GTA G15A C55A A58G,0.25
21,GAA T8C G15A A20T,0.11
22,GAA A14T A20G C55T T59G,0.2
23,GAT G15A G17C A20G C55T,0.25
24,GAA G15T T53C T59A,0.2

row,Variant,tRNA 5' processing efficiency
1,AGA T8G G9T T53C C55T,0.33
2,GAA T8G G15C G17A,0.33
3,GAA T8G T59G,0.2
4,GGA G15A A20C,0.33
5,GAA G17A T19A,0.25
6,AAA A20T A58C,0.33
7,GAT T8C A58T,0.33
8,AGT G9A T19A,0.25
9,GAA G9T T19A A43G T53C,0.2
10,GAA G9A G17C A20T A23T T53G T59A,0.25
11,GAA G17T T19A A20G T53C A58G T59C,0.18
12,CAA G15C G18T,0.33
13,TAA G18A T53A,0.17
14,GAA G15A T19G T53A T54C,0.33
15,GCA A14G T54C A58G,0.14
16,GAA G9T G15C T53A C55T T59A,0.25
17,TTC G9A G18C,0.4
18,ATA G9T G18A T19C,0.33
19,GAA T8C G9C T19C,0.33
20,CAA G15C T19A,0.33
21,GAA A14C G15T G18T A20T T54C C55T,0.25
22,GAA G15A G17C T19C C55G,0.25
23,GAA A14T G17T C55G,0.2
24,GAA G51A T54A,0.14

row,Variant,tRNA 5' processing efficiency
1,GAA G15T T59A,0.4
2,GAA G17C C55A A58C T59G,0.2
3,GCA T8G C55T,0.25
4,GTA T8G G15T G18A C55A T59G,0.33
5,GAA T8A T19C A58C,0.2
6,GAT T8A T59G,0.57
7,GAA T8G G17A T59G,0.33
8,AAA G9A,0.25
9,GCA C55T T59A,0.25
10,AAA G17T,0.17
11,GAT A14C T54G,0.4
12,GAA T8G G15A G17C T19A A20G C55G A58G T59G,0.13
13,ACT T53A T59A,0.14
14,GAT T8G G51A A58G,0.2
15,GCA T54G,0.25
16,GTA G17A T19A T53A A58T,0.25
17,CAA G18C A58G,0.25
18,GAA T8G T54A A58T,0.2
19,GAA T54G A58T,0.25
20,GAA A14G A20G T54A A58C,0.33
21,GCA G17C C55G,0.25
22,GAA T8A A20C A58T,0.33
23,GAC G17C T19G,0.25
24,AAA G9A G18T A20G T54A,0.5

row,Variant,tRNA 5' processing efficiency
1,GAA G9C A14G T59G,0.17
2,GAA T8A G9T C55G,0.17
3,GAA G17A C55A,0.25
4,GAG T8G G9A,0.44
5,GTA G9A T19C C55G,0.13
6,GAA A20G C55T,0.25
7,ATA A14C T53A C55A,0.71
8,GGA G15T A58T,0.4
9,GAA G9A G15T G17C,0.15
10,GAA A20T A23T T54C,0.4
11,TAC G18T,0.14
12,GAT G15C G17C G18A T54A,0.25
13,GAA G9T G18A A20T T54A,0.25
14,GAA T8A T19C G29T,0.33
15,AAA G15T G18T T19A A20C T53C,0.33
16,CCA T8A A14T G18A T54C A58G,0.33
17,GAA A20G T54G,0.25
18,AAG A14C G18C T59A,0.13
19,GAG A14T T19G A20C A58C T59G,0.25
20,CAC G9T G15T T54C,0.4
21,GTA G15C G17C G18T,0.57
22,GAT G18A A20T A58C,0.25
23,AAA G15C C55A,0.5
24,GAG A14T G15C G17C,0.17

row,Variant,tRNA 5' processing efficiency
1,GAG T8G G17A G18A A20G T53C,0.2
2,GAA T8C G18T T19G A58G,0.33
3,GTT G17A T19G A20G C55T,0.07
4,GAA G15T A20C T54C C55G,0.33
5,GAA A14G G18A T53A T59G,0.4
6,GAA A14G G17T A20C G44A C55G T59G,0.25
7,GAA G9A C55G,0.3
8,CAC G9A A14C,0.25
9,TAA G18C A20G C55T,0.33
10,GAC G18T A58T T59A,0.25
11,GAG G17T T19G C55T A58G,0.25
12,AGA G9A G15T A20G T53A,0.25
13,AAG T53G T54A A58T,0.4
14,GTT T8A G17T G18T A58G,0.33
15,GTA G17T A20C A58C,0.09
16,GAA G18A T54C C55G T59A,0.33
17,GGG G9A G15C A58T T59C,0.13
18,GAA T8G A14T,0.4
19,CAA A14T G15A G18T T53G A58G,0.33
20,GAA T8G A14T T53A,0.25
21,GAG G9A A14T,0.2
22,GAT T54A C55G A58T,0.25
23,GAA T53G T54C,0.25
24,GAA G9T T19A A20G T53G A58G,0.09

# Some of the entries above in a different format.
row	Variant	tRNA 5' processing efficiency
15	AAA T53A T54G	0.4
16	GGA T8G G18T A58C	0.22

# Exported as tab-separated lines: entries from further up.
row	Variant	tRNA 5' processing efficiency
15	GCA A14G T54C A58G	0.14
15	GCA T54G	0.25
17	GAA A20G T54G	0.25
7	GAA G9A C55G	0.3

# More results.

row,Variant,tRNA 5' processing efficiency
1,GAG A14T G17T,0.25
2,GGA G17T C55T,0.25
3,GAA A20G T54G T59A,0.33
4,GAG G17C G18T,0.4
5,GTA G18A T59G,0.2
6,CAA G9A T53A A58G,0.2
7,GTA T8A C55T A58T T59A,0.33
8,TTA G17T G18C,0.2
9,GAA T8C G15T A20G T54G A58C T59G,0.11
10,TGA G9A A20C T53A,0.33
11,GAA T8G G18T T53G,0.14
12,GAA A20C C55A,0.2
13,GGG A14G G17C T54C,0.25
14,AAA A14G A20C,0.29
15,GTA A14G G18C,0.2
16,GAT G15T G17T G18T T54G T59C,0.25
17,AAT A20G T59C,0.25
18,GAA A14T A20T T53A A58T,0.08
19,GAA G18T T53G T54G,0.25
20,GAA A14T G15C G17C G18A,0.25
21,CAA G18T C55T T59C,0.25
22,GAG G17C T59G,0.25
23,AAA T53C C55T,0.33
24,GAA G18T C55A,0.33

row,Variant,tRNA 5' processing efficiency
1,TAA G9C A20C T59C,0.69
2,GAG T8C A14G G15T,0.5
3,CGC G17A C55T,0.5
4,GAC T8C G18C T54C T59G,0.17
5,GGA G15T T53A A58C,0.04
6,GAG T8A T19G A20T T54C T59C,0.11
7,GTA T8G T53G,0.25
8,GAA G15C G17C T54C C55T A58C,0.13
9,GAA T8C C55T A58T T59G,0.5
10,GAG T19C C55G,0.33
11,GGA A14C G17T,0.57
12,ATT T8A T53C A58T,0.5
13,GAA G15T T54A T59G,0.2
14,GAA A14C G17T T54A C55T,0.25
15,GAA T8G G17A T54A T59G,0.33
16,AGA G9C A20T T53G,0.14
17,ATC A14G G15C,0.17
18,CAA A14T G17C C55A,0.11
19,GTC G18T A58T T59G,0.25
20,AAA A14C G18A A20T T53G,0.4
21,GTA G17T T19G A58T,0.07
22,GGA G17T C55G T59A,0.25
23,GTA A20T C55T T59G,0.29
